No constants are given. Whether binding was seen depends on the method and setting. For some assays here: Binding seen in cells or lysates may run through a third protein. Some results given as binding are weak or reduced against the parent protein; the word gives no strength. For some assays here: Sequences can lack the tags named with a protein.
Assays:
[1] = biological target: isolated EGFP-TRF2 (in vitro pull-down) (human) (UniProt Q15554); assay: pull-down; isolated EGFP-TRF2 or EGFP alone with purified His-PPM1D in vitro; both purified
[2] = biological target: EGFP-TRF1 expressed in MCF7 cells (UniProt P54274); assay: co-IP; MCF7 transfected with EGFP-TRF1 or EGFP-TRF2; extracts with bensonase on GFP trap; immunoblot of endogenous PPM1D
[3] = biological target: EGFP-TRF2 expressed in MCF7 cells (human) (UniProt Q15554); assay: as above
[4] = biological target: TRF2, endogenous in MCF7 (human (endogenous in MCF7)) (UniProt Q15554); assay: proximity ligation; fixed cells (MCF7, U2OS), endogenous proteins, pairs of primary antibodies, Duolink PLA probes; cells also treated with PPM1D inhibitor, siRNA to TRF2 or PPM1D knock-out
[5] = biological target: T1, RAP1, endogenous in MCF7 (human (endogenous in MCF7)) (UniProt Q9NYB0); assay: as above
T1 sequence: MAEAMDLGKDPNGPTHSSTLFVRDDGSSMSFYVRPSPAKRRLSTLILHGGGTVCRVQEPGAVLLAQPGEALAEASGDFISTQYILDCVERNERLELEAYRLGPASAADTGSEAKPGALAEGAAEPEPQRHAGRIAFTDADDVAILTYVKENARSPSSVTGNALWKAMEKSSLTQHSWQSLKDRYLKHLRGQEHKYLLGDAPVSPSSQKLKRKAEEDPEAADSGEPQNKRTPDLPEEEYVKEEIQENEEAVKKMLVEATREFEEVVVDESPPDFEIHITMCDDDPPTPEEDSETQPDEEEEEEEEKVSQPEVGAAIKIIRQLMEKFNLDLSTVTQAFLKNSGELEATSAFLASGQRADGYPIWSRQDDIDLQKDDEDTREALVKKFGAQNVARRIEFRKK

Chains of the proteins cited; added tags and fusions are not shown. Lines headed by an entry give the natural chain unless they say otherwise; changes in a name come on top.
UniProt Q15554: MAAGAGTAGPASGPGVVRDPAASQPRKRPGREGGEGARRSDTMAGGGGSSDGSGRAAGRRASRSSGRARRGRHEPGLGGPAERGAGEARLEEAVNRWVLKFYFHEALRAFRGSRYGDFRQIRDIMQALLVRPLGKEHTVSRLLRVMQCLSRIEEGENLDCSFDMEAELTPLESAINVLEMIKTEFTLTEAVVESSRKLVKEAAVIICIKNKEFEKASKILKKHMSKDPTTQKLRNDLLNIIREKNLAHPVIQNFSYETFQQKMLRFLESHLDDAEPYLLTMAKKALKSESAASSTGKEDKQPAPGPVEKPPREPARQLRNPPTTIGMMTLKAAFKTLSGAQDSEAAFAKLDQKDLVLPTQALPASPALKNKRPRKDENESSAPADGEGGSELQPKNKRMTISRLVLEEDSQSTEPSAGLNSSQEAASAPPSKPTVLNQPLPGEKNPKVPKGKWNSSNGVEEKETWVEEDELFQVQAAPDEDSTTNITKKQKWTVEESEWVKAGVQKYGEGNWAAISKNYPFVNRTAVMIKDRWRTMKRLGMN
UniProt P54274: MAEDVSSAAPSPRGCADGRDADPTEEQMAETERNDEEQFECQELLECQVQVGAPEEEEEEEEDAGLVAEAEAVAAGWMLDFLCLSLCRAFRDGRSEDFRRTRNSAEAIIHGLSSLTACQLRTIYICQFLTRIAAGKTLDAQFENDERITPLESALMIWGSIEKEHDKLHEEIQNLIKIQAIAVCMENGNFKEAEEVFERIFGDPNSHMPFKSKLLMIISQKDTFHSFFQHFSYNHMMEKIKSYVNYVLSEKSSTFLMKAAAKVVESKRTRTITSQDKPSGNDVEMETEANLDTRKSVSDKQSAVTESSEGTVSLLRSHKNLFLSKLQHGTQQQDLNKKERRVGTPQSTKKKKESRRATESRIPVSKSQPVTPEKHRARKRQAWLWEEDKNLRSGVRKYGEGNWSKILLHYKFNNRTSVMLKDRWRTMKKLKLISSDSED

[6] = biological target: TRF2, endogenous in U2OS (human (endogenous in U2OS)) (UniProt Q15554); assay: as above
[7] = biological target: EGFP-TRF2-S410A (non-phosphorylatable mutant) (human) (UniProt Q15554); assay: co-IP; HEK293 expressing EGFP-TRF2 variants; extracts on GFP Trap; immunoblot of endogenous TIN2 (legend: DMSO or PPM1D inhibitor for 4 h)
[8] = biological target: EGFP-TRF2-S410E (phosphorylation mimicking mutant) (human) (UniProt Q15554); assay: as above
[9] = biological target: wild-type EGFP-TRF2 expressed in HEK293 cells (human) (UniProt Q15554); assay: as above
[10] = biological target: T2, EGFP-PPM1D (full length, wild type) (human) (UniProt O15297); assay: co-IP; HEK293 transfected with EGFP-PPM1D constructs; extracts with bensonase on GFP trap; immunoblot of endogenous proteins
T2 sequence: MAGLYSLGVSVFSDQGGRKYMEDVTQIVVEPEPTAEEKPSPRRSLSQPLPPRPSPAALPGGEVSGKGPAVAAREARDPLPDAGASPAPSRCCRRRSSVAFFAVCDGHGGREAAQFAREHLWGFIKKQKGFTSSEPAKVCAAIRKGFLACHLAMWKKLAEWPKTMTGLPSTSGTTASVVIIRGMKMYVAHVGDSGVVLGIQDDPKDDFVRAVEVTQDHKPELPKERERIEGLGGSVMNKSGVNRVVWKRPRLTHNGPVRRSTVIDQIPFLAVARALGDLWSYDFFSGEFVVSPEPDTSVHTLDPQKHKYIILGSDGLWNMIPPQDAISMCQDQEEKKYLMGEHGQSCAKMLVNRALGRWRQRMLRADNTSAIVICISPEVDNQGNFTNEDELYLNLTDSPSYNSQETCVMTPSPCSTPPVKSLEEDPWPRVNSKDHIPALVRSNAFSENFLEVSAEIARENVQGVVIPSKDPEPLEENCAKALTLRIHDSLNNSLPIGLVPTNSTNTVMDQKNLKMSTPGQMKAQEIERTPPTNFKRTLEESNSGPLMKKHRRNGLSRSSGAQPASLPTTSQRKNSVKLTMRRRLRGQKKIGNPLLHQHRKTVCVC

B1: purified His-PPM1D (enzyme, UniProt O15297 1-605)
chain: MAGLYSLGVSVFSDQGGRKYMEDVTQIVVEPEPTAEEKPSPRRSLSQPLPPRPSPAALPGGEVSGKGPAVAAREARDPLPDAGASPAPSRCCRRRSSVAFFAVCDGHGGREAAQFAREHLWGFIKKQKGFTSSEPAKVCAAIRKGFLACHLAMWKKLAEWPKTMTGLPSTSGTTASVVIIRGMKMYVAHVGDSGVVLGIQDDPKDDFVRAVEVTQDHKPELPKERERIEGLGGSVMNKSGVNRVVWKRPRLTHNGPVRRSTVIDQIPFLAVARALGDLWSYDFFSGEFVVSPEPDTSVHTLDPQKHKYIILGSDGLWNMIPPQDAISMCQDQEEKKYLMGEHGQSCAKMLVNRALGRWRQRMLRADNTSAIVICISPEVDNQGNFTNEDELYLNLTDSPSYNSQETCVMTPSPCSTPPVKSLEEDPWPRVNSKDHIPALVRSNAFSENFLEVSAEIARENVQGVVIPSKDPEPLEENCAKALTLRIHDSLNNSLPIGLVPTNSTNTVMDQKNLKMSTPGQMKAQEIERTPPTNFKRTLEESNSGPLMKKHRRNGLSRSSGAQPASLPTTSQRKNSVKLTMRRRLRGQKKIGNPLLHQHRKTVCVC
binding [1]: binds

B2: PPM1D, endogenous in MCF7 (enzyme, UniProt O15297 1-605)
chain: MAGLYSLGVSVFSDQGGRKYMEDVTQIVVEPEPTAEEKPSPRRSLSQPLPPRPSPAALPGGEVSGKGPAVAAREARDPLPDAGASPAPSRCCRRRSSVAFFAVCDGHGGREAAQFAREHLWGFIKKQKGFTSSEPAKVCAAIRKGFLACHLAMWKKLAEWPKTMTGLPSTSGTTASVVIIRGMKMYVAHVGDSGVVLGIQDDPKDDFVRAVEVTQDHKPELPKERERIEGLGGSVMNKSGVNRVVWKRPRLTHNGPVRRSTVIDQIPFLAVARALGDLWSYDFFSGEFVVSPEPDTSVHTLDPQKHKYIILGSDGLWNMIPPQDAISMCQDQEEKKYLMGEHGQSCAKMLVNRALGRWRQRMLRADNTSAIVICISPEVDNQGNFTNEDELYLNLTDSPSYNSQETCVMTPSPCSTPPVKSLEEDPWPRVNSKDHIPALVRSNAFSENFLEVSAEIARENVQGVVIPSKDPEPLEENCAKALTLRIHDSLNNSLPIGLVPTNSTNTVMDQKNLKMSTPGQMKAQEIERTPPTNFKRTLEESNSGPLMKKHRRNGLSRSSGAQPASLPTTSQRKNSVKLTMRRRLRGQKKIGNPLLHQHRKTVCVC
binding [2]: binds
binding [3]: binds
binding [4]: binds
binding [5]: binds

B3: PPM1D, endogenous in U2OS (enzyme, UniProt O15297 1-605)
chain: MAGLYSLGVSVFSDQGGRKYMEDVTQIVVEPEPTAEEKPSPRRSLSQPLPPRPSPAALPGGEVSGKGPAVAAREARDPLPDAGASPAPSRCCRRRSSVAFFAVCDGHGGREAAQFAREHLWGFIKKQKGFTSSEPAKVCAAIRKGFLACHLAMWKKLAEWPKTMTGLPSTSGTTASVVIIRGMKMYVAHVGDSGVVLGIQDDPKDDFVRAVEVTQDHKPELPKERERIEGLGGSVMNKSGVNRVVWKRPRLTHNGPVRRSTVIDQIPFLAVARALGDLWSYDFFSGEFVVSPEPDTSVHTLDPQKHKYIILGSDGLWNMIPPQDAISMCQDQEEKKYLMGEHGQSCAKMLVNRALGRWRQRMLRADNTSAIVICISPEVDNQGNFTNEDELYLNLTDSPSYNSQETCVMTPSPCSTPPVKSLEEDPWPRVNSKDHIPALVRSNAFSENFLEVSAEIARENVQGVVIPSKDPEPLEENCAKALTLRIHDSLNNSLPIGLVPTNSTNTVMDQKNLKMSTPGQMKAQEIERTPPTNFKRTLEESNSGPLMKKHRRNGLSRSSGAQPASLPTTSQRKNSVKLTMRRRLRGQKKIGNPLLHQHRKTVCVC
binding [6]: binds

B4: TIN2, endogenous in HEK293 (protein, UniProt Q9BSI4 1-451)
chain: MATPLVAGPAALRFAAAASWQVVRGRCVEHFPRVLEFLRSLRAVAPGLVRYRHHERLCMGLKAKVVVELILQGRPWAQVLKALNHHFPESGPIVRDPKATKQDLRKILEAQETFYQQVKQLSEAPVDLASKLQELEQEYGEPFLAAMEKLLFEYLCQLEKALPTPQAQQLQDVLSWMQPGVSITSSLAWRQYGVDMGWLLPECSVTDSVNLAEPMEQNPPQQQRLALHNPLPKAKPGTHLPQGPSSRTHPEPLAGRHFNLAPLGRRRVQSQWASTRGGHKERPTVMLFPFRNLGSPTQVISKPESKEEHAIYTADLAMGTRAASTGKSKSPCQTLGGRALKENPVDLPATEQKENCLDCYMDPLRLSLLPPRARKPVCPPSLCSSVITIGDLVLDSDEEENGQGEGKESLENYQKTKFDTLIPTLCEYLPPSGHGAIPVSSCDCRDSSRPL
binding [7]: binds
binding [8]: binds
binding [9]: binds

B5: TIN2, endogenous in U2OS (protein, UniProt Q9BSI4 1-451)
chain: MATPLVAGPAALRFAAAASWQVVRGRCVEHFPRVLEFLRSLRAVAPGLVRYRHHERLCMGLKAKVVVELILQGRPWAQVLKALNHHFPESGPIVRDPKATKQDLRKILEAQETFYQQVKQLSEAPVDLASKLQELEQEYGEPFLAAMEKLLFEYLCQLEKALPTPQAQQLQDVLSWMQPGVSITSSLAWRQYGVDMGWLLPECSVTDSVNLAEPMEQNPPQQQRLALHNPLPKAKPGTHLPQGPSSRTHPEPLAGRHFNLAPLGRRRVQSQWASTRGGHKERPTVMLFPFRNLGSPTQVISKPESKEEHAIYTADLAMGTRAASTGKSKSPCQTLGGRALKENPVDLPATEQKENCLDCYMDPLRLSLLPPRARKPVCPPSLCSSVITIGDLVLDSDEEENGQGEGKESLENYQKTKFDTLIPTLCEYLPPSGHGAIPVSSCDCRDSSRPL
binding [6]: binds

B6: TRF2-interacting telomeric protein 1 (RAP1), endogenous in HEK293 (protein, UniProt Q9NYB0 1-399)
chain: MAEAMDLGKDPNGPTHSSTLFVRDDGSSMSFYVRPSPAKRRLSTLILHGGGTVCRVQEPGAVLLAQPGEALAEASGDFISTQYILDCVERNERLELEAYRLGPASAADTGSEAKPGALAEGAAEPEPQRHAGRIAFTDADDVAILTYVKENARSPSSVTGNALWKAMEKSSLTQHSWQSLKDRYLKHLRGQEHKYLLGDAPVSPSSQKLKRKAEEDPEAADSGEPQNKRTPDLPEEEYVKEEIQENEEAVKKMLVEATREFEEVVVDESPPDFEIHITMCDDDPPTPEEDSETQPDEEEEEEEEKVSQPEVGAAIKIIRQLMEKFNLDLSTVTQAFLKNSGELEATSAFLASGQRADGYPIWSRQDDIDLQKDDEDTREALVKKFGAQNVARRIEFRKK
binding [10]: binds

— paper PMC9943673
